Reference: patent US20120172375A1, “COMPOUNDS AND METHODS OF PROMOTING OLIGODENDROCYTE PRECURSOR DIFFERENTIATION” (priority 2008, published 2012)
Some of these results come from one statement about several compounds together.

Tested on: cuprizone-fed C57B1/6J mice
Test: Myelin protein (PLP/DM20, MOG) immunostaining densitometry in cuprizone-demyelinated mice
Type: in vivo
Conditions: i.p., 5-20 mg/kg
Experimental: For in vivo experiments in mice, the cuprizone-mediated demyelination model was implemented as described elsewhere, (Sun et al., 2006; Wu et al., 2008). In brief, 9 week-old C57B1/J6 mice were fed with cuprizone supplemented chow (0.3%, Harlan) during 4-6 weeks. At the end of this period, while the mice were still on cuprizone diet, the animals were injected I.P. with the indicated concentrations of small molecules dissolved in DMSO. 72 hrs later, a second dose was administered and at that point the food was changed to regular chow. 48 hr after the second dose, the animals were sacrificed perfused with 4% paraformaldehyde (PFH) and the brain tissue processed or immunohistochemistry.
Immunodetection of oligodendrocyte and myelin markers was performed. In brief, Oligodendrocyte cells plated on PDL-coated dishes were initially fixed in 2% paraformaldehyde (PFA) for 10 min at room temperature (RT) and then 4% PFA for 15 min, washed three times with PBS and permeabilized with 0.1% Triton X100 for 10 min at RT. After blocking with 3% BSA in PBS for 60 min a RT, the cells were incubated with primary antibodies at the indicated concentrations overnight (ON) at 4° C. The cells were washed three times with cold PBS incubated with secondary antibodies for 45 min at RT, and washed again before mounting. Immunostaining of tissue sections prepared with a sliding microtome (30 μm) was performed. […]

Structure (SMILES)	myelin protein levels relative to non cuprizone-fed levels
CCS(=O)(=O)N1CCN(C(=O)COc2ccc(-c3ccccc3)cc2)CC1 [Compound A, 1-[(4-biphenylyloxy)acetyl]-4-(ethylsulfonyl)piperazine]	80-90%
CC(C)N1CCN(C(=O)COc2ccc(-c3ccccc3)cc2)CC1 [Compound A-7, 1-(Biphenyl-4-yloxy)acetyl-4-isopropylpiperazine]	80-90%
